Taken from: PubChem BioAssay AID720505 (Drosophila RNAi Screening Center, 2013)

- Test: 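Fly regulators or components of the CRAC channel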 (primary screen)
- System: Drosophila S2R+ cells
- Reagents: long dsRNA against Drosophila genes
- Challenge: thapsigargin (2 µM) in calcium-free buffer to empty internal stores, then 2 mM calcium added back
- Detection: 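Stores emptied by 2 µM thapsigargin without calcium, then 2 mM calcium re-added; fluo-4 fluorescence followed by FLIPR in 384-well plates, per-well averaged endpoint, raw; two screen passes, some wells retested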
- Scale: calcium signal and retest calcium signal: higher = more calcium entry after store depletion
- Call rule: 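Knock-downs counted as hits when calcium entry dropped relative to STIM1 positive and Rho1 negative controls present on each plate; roughly 1500 genes called, with reductions of differing size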
- Meaning of the calls: active = called as lowering calcium entry; inactive = not called
The deposit covers about 20,000 reagents; shown is a random part of those with a known target gene and a result. Of all reagents, about 2,100 (10%) are marked active. 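Raw plate signals without normalisation; calls rest on control-based scores that were not deposited; replicate 2 separates called from uncalled poorly.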 A plus sign joins genes that one reagent is predicted to hit. No sequences are given here. Not stated in the record: the amount of reagent, the time to read-out.

gene | dsRNA | calcium signal, replicate 1 | calcium signal, replicate 2 | retest calcium signal, replicate 1 | retest calcium signal, replicate 2 | Outcome
CG7328 | DRSC10812 | 107 | 99.3 | – | – | inactive
jus | DRSC14861 | 124 | 106 | – | – | inactive
jus | DRSC14862 | 71.2 | 105 | – | – | active
jus | DRSC23018 | 116 | 149 | – | – | inactive
CG7789 | DRSC16312 | 104 | 144 | – | – | inactive
Tim17b1 | DRSC12179 | 107 | 156 | – | – | inactive
AstA | DRSC14634 | 218 | 106 | – | – | inactive
Menl-2 + Menl-1 | DRSC07469 | 153 | 159 | – | – | inactive
Menl-2 + Menl-1 | DRSC07470 | 163 | 185 | – | – | inactive
TfIIFalpha | DRSC12608 | 109 | 115 | – | – | inactive
PIG-A | DRSC06982 | 171 | 122 | – | – | inactive
Ance-4 | DRSC07104 | 139 | 88.5 | – | – | inactive
Gycbeta100B | DRSC16691 | 106 | 93.4 | – | – | inactive
SERCA | DRSC04600 | 141 | 103 | – | – | inactive
ND-B8 | DRSC00449 | 74.1 | 126 | – | – | active
CG12213 | DRSC14478 | 166 | 181 | 175 | 111 | inactive
CG12213 | DRSC22109 | 83.2 | 217 | – | – | inactive
Smyd4-1 | DRSC06785 | 159 | 99.4 | – | – | inactive
qtc | DRSC02364 | 114 | 211 | – | – | inactive
qtc | DRSC02365 | 154 | 87.8 | – | – | inactive
Mlh1 | DRSC07473 | 208 | 129 | – | – | inactive
TotX | DRSC22206 | 80.1 | 272 | – | – | inactive
CG4849 | DRSC15662 | 97.9 | 91.4 | – | – | inactive
sv | DRSC17221 | 95.1 | 144 | – | – | inactive
CG15330 | DRSC18014 | 149 | 119 | – | – | inactive
CG33648 | DRSC01387 | 74.7 | 122 | – | – | inactive
CG6683 | DRSC10694 | 119 | 118 | – | – | inactive
CG4042 | DRSC11751 | 98.9 | 119 | – | – | inactive
ScsbetaG | DRSC11294 | 110 | 85.4 | – | – | inactive
CG31198 | DRSC15891 | 118 | 140 | – | – | inactive
Ugt307A1 | DRSC02138 | 186 | 94.8 | – | – | inactive
b | DRSC03487 | 147 | 119 | – | – | inactive
CG33282 | DRSC00422 | 114 | 132 | – | – | inactive
CG15814 | DRSC19730 | 143 | 183 | – | – | inactive
nvy | DRSC04705 | 197 | 112 | 142 | 109 | inactive
CG12746 | DRSC12218 | 107 | 104 | – | – | inactive
pdm3 | DRSC06076 | 106 | 122 | – | – | inactive
pdm3 | DRSC06490 | 103 | 158 | – | – | inactive
pdm3 | DRSC22326 | 96.1 | 228 | – | – | inactive
pdm3 | DRSC23181 | 124 | 113 | – | – | inactive
CG31802 | DRSC02459 | 101 | 91.2 | – | – | inactive
CG11170 | DRSC04090 | 105 | 82.8 | – | – | inactive
CadN | DRSC03286 | 127 | 147 | – | – | inactive
CG2931 | DRSC12324 | 134 | 172 | – | – | inactive
dar1 | DRSC08233 | 65.9 | 112 | – | – | inactive
CG12259 | DRSC14486 | 116 | 120 | – | – | inactive
CG12259 | DRSC23281 | 98.2 | 148 | – | – | inactive
Bap55 | DRSC07000 | 108 | 91.8 | – | – | inactive
wac | DRSC08349 | 94.5 | 113 | – | – | inactive
CG30495 | DRSC06703 | 174 | 131 | – | – | inactive
CG10301 | DRSC14226 | 165 | 129 | – | – | inactive
CG4891 | DRSC01936 | 103 | 91.1 | – | – | inactive
Nup358 | DRSC14410 | 259 | 163 | – | – | inactive
CG34299 | DRSC13974 | – | – | – | – | inactive
GNBP2 | DRSC10404 | 133 | 118 | – | – | inactive
Fbp1 | DRSC11166 | 93.4 | 174 | – | – | inactive
Ziz | DRSC02506 | 192 | 89.3 | – | – | inactive
Ziz | DRSC02976 | 55 | 151 | – | – | active
CG4983 | DRSC02799 | 106 | 91.5 | – | – | inactive
Blm + CG14721 | DRSC14943 | 187 | 117 | – | – | inactive
Syt12 | DRSC19359 | 119 | 100 | – | – | inactive
Dpck | DRSC12575 | 116 | 165 | – | – | inactive
CG17974 | DRSC04299 | 202 | 136 | – | – | inactive
Rgk1 | DRSC05785 | 80.3 | 148 | – | – | inactive
Rgk1 | DRSC05786 | 119 | 89.3 | – | – | inactive
Rgk1 | DRSC05789 | 145 | 88.7 | – | – | inactive
Rgk1 | DRSC07343 | 149 | 119 | – | – | inactive
Rgk1 | DRSC07344 | 104 | 114 | – | – | inactive
eIF2Bdelta | DRSC04058 | 182 | 83.6 | – | – | inactive
CG15912 | DRSC18105 | 237 | 130 | – | – | inactive
dpr10 | DRSC10159 | 109 | 69.1 | – | – | inactive
dpr10 | DRSC10160 | 91.2 | 67.3 | – | – | inactive
CG31869 | DRSC02582 | 98 | 119 | – | – | inactive
CG31869 | DRSC02674 | 118 | 136 | – | – | inactive
CG33474 | DRSC05218 | 93.6 | 112 | – | – | inactive
CG31077 | DRSC13805 | – | – | – | – | active
CG43347 | DRSC17982 | 79.6 | 128 | – | – | inactive
CG43347 | DRSC18446 | 46.9 | 82.6 | 123 | 4322 | active
CG43347 | DRSC22656 | 77.2 | 170 | – | – | inactive
CG43347 | DRSC22682 | 97.9 | 170 | – | – | inactive
CG43347 | DRSC23007 | 128 | 154 | – | – | inactive
CG43347 | DRSC23170 | 105 | 90.9 | – | – | inactive
RhoGAP68F | DRSC10717 | 103 | 116 | – | – | inactive
